According to article PMC5996148:
Some of the results follow.

How the values were obtained:
Experiment in all cases: protein microarray (ProtoArray v5.0), streptavidin-Alexa Fluor 647
Details in all cases: 3'-biotin; 20 mM Tris (pH 7.5), 5 mM MgCl2, 100 mM KCl, 0.1% Tween-20, A/T-rich and random oligonucleotide blockers; temperature not stated; high values mean tight binding
TXN2 (human) = test system: TXN2 (human)
TXNDC1 (human) = test system: TXNDC1 (human)
TXNDC9 (human) = test system: TXNDC9 (human)
TXNL4A (human) = test system: TXNL4A (human)
TXNL4B (human) = test system: TXNL4B (human)
TYMS (human) = test system: TYMS (human)
TYW1 (human) = test system: TYW1 (human)
Tachykinin-3 (human) = test system: Tachykinin-3 (human)
Tafazzin (human) = test system: Tafazzin (human)
[1] = test system: Taste receptor type 2 member 60 (human)
Tesmin (human) = test system: Tesmin (human)
Tetraspanin-4 (human) = test system: Tetraspanin-4 (human)
[2] = test system: Tetratricopeptide repeat protein 1 (human)
[3] = test system: Thiamin pyrophosphokinase 1 (human)
[4] = test system: Thimet oligopeptidase (human)
[5] = test system: Thioredoxin reductase 1, cytoplasmic (human)
[6] = test system: Thrombospondin type-1 domain-containing protein 4 (human)
[7] = test system: Thymosin beta-4, Y-chromosomal (human)
[8] = test system: Thyroid receptor-interacting protein 11 (human)
Titin (human) = test system: Titin (human)

GGGAGGCTGAGGCAGG [G4-1 biotinylated (PQS2)]
binding signal (TXN2 (human)): -0.346 z-score | binding signal (TXNDC1 (human)): -0.338 z-score | binding signal (TXNDC9 (human)): -0.348 z-score | binding signal (TXNL4A (human)): -0.31 z-score | binding signal (TXNL4B (human)): -0.334 z-score | binding signal (TYMS (human)): -0.3 z-score | binding signal (TYW1 (human)): -0.331 z-score | binding signal (Tachykinin-3 (human)): -0.327 z-score | binding signal (Tafazzin (human)): -0.283 z-score | binding signal [1]: -0.315 z-score | binding signal (Tesmin (human)): -0.36 z-score | binding signal (Tetraspanin-4 (human)): -0.303 z-score | binding signal [2]: -0.346 z-score | binding signal [3]: -0.307 z-score | binding signal [4]: -0.299 z-score | binding signal [5]: -0.316 z-score | binding signal [6]: -0.308 z-score | binding signal [7]: -0.353 z-score | binding signal [8]: -0.336 z-score | binding signal (Titin (human)): -0.311 z-score
